PubChem BioAssay AID1159584, Peter MacCallum Cancer Centre – 2016
Here is a random part of about 18,000 reagents tested. Further read-outs or replicates are left out here. No sequences are given here. Not stated in the record: the amount of reagent, the time to read-out.

- Purpose: 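Genes that CDH1-null MCF10A cells selectively depend on to survive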 (primary screen)
- System: human MCF10A breast epithelial cells, parental and CDH1-null
- Reagents: siRNA against human genes
- Measured: 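ATP luminescence (CellTiter-Glo) viability per line relative to mean mock wells over all plates, and the ratio of CDH1-null to parental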
- Direction: CDH1-null / parental viability ratio: higher = CDH1-null cells survive relatively better than parental; CDH1-null viability vs mock: higher = more viable CDH1-null cells

The first 6 records, to show the layout:
target gene | CDH1-null / parental viability ratio | CDH1-null viability vs mock (fraction of mock)
C17orf67 (chromosome 17 open reading frame 67) | 1.54 | 0.97
STIMATE (STIM activating enhancer) | 0.95 | 0.78
IL5RA (interleukin 5 receptor subunit alpha) | 0.95 | 0.84
SGK3 (serum/glucocorticoid regulated kinase family member 3) | 1.06 | 0.89
RPL21P44 (ribosomal protein L21 pseudogene 44) | 1.12 | 0.72
OXSM (3-oxoacyl-ACP synthase, mitochondrial) | 0.99 | 0.77

Results, repeating the preview:
target gene | CDH1-null / parental viability ratio | CDH1-null viability vs mock (fraction of mock)
C17orf67 (chromosome 17 open reading frame 67) | 1.54 | 0.97
STIMATE (STIM activating enhancer) | 0.95 | 0.78
IL5RA (interleukin 5 receptor subunit alpha) | 0.95 | 0.84
SGK3 (serum/glucocorticoid regulated kinase family member 3) | 1.06 | 0.89
RPL21P44 (ribosomal protein L21 pseudogene 44) | 1.12 | 0.72
OXSM (3-oxoacyl-ACP synthase, mitochondrial) | 0.99 | 0.77
DPYSL5 (dihydropyrimidinase like 5) | 1 | 1
PRAF2 (PRA1 domain family member 2) | 0.89 | 0.59
CD46 (CD46 molecule) | 1.16 | 0.89
OR2T5 (olfactory receptor family 2 subfamily T member 5) | 1.04 | 0.96
SAMD4A (sterile alpha motif domain containing 4A) | 0.96 | 1.04
MYL1 (myosin light chain 1) | 0.78 | 0.38
SPIN1 (spindlin 1) | 1.29 | 0.94
CHKA (choline kinase alpha) | 0.87 | 0.66
S100A1 (S100 calcium binding protein A1) | 1.32 | 0.62
VDAC3 (voltage dependent anion channel 3) | 1.42 | 1.02
HTR1D (5-hydroxytryptamine receptor 1D) | 0.89 | 0.86
RUSC1-AS1 (RUSC1 antisense RNA 1) | 0.97 | 0.93
DPH5 (diphthamide biosynthesis 5) | 0.96 | 0.94
OR9A2 (olfactory receptor family 9 subfamily A member 2) | 1.1 | 0.9
LBX1 (ladybird homeobox 1) | 1 | 0.9
DISP1 (dispatched RND transporter family member 1) | 1.02 | 0.61
CCN1 (cellular communication network factor 1) | 0.93 | 0.68
RNF157 (ring finger protein 157) | 0.95 | 0.74
PEDS1 (plasmanylethanolamine desaturase 1) | 1.05 | 0.84
LSM11 (LSM11, U7 small nuclear RNA associated) | 0.99 | 0.68
PPP3CB (protein phosphatase 3 catalytic subunit beta) | 1.13 | 0.96
PRRT2 (proline rich transmembrane protein 2) | 0.93 | 0.92
CXXC4 (CXXC finger protein 4) | 1.04 | 0.5
EVC (EvC ciliary complex subunit 1) | 0.58 | 0.6
DLEC1 (DLEC1 cilia and flagella associated protein) | 1.01 | 0.94
LIMD1 (LIM domain containing 1) | 1.08 | 0.98
INCA1 (inhibitor of CDK, cyclin A1 interacting protein 1) | 0.93 | 0.56
RAB3D (RAB3D, member RAS oncogene family) | 0.85 | 0.98
LRRC10 (leucine rich repeat containing 10) | 0.83 | 0.52
IGBP1 (immunoglobulin binding protein 1) | 1.35 | 0.92
SLC16A1 | 0.98 | 1
ETS1 (ETS proto-oncogene 1, transcription factor) | 0.88 | 0.72
BEND3 (BEN domain containing 3) | 0.71 | 0.54
OR10A7 (olfactory receptor family 10 subfamily A member 7) | 1.17 | 1.25
PTPN12 (protein tyrosine phosphatase non-receptor type 12) | 1.32 | 1.08
SLC51A | 1.09 | 0.85
HTR2C (5-hydroxytryptamine receptor 2C) | 0.85 | 0.86
SLC2A13 | 0.76 | 0.56
OR6Y1 (olfactory receptor family 6 subfamily Y member 1) | 1.46 | 0.6
PTCD3 (pentatricopeptide repeat domain 3) | 0.71 | 0.51
EIF5B (eukaryotic translation initiation factor 5B) | 1.3 | 1.07
DZANK1 (double zinc ribbon and ankyrin repeat domains 1) | 1.12 | 0.96
TEX44 (testis expressed 44) | 0.83 | 0.6
DPYSL3 (dihydropyrimidinase like 3) | 1.11 | 1.13
KCNAB3 | 1.14 | 1.05
CAPN9 (calpain 9) | 1.2 | 0.77
TONSL (tonsoku like, DNA repair protein) | 0.91 | 0.8
CIT (citron rho-interacting serine/threonine kinase) | 0.81 | 0.58
INTS10 (integrator complex subunit 10) | 0.92 | 0.57
UBR2 (ubiquitin protein ligase E3 component n-recognin 2) | 1 | 0.97
CILP (cartilage intermediate layer protein) | 1.29 | 0.88
RPS19 (ribosomal protein S19) | 1.2 | 0.36
TMEM145 (transmembrane protein 145) | 0.95 | 0.84
LRRD1 (leucine rich repeats and death domain containing 1) | 0.94 | 0.96
KRTAP5-5 (keratin associated protein 5-5) | 1.35 | 0.74
CYP39A1 (cytochrome P450 family 39 subfamily A member 1) | 0.75 | 0.57
MYH13 (myosin heavy chain 13) | 1.14 | 0.8
ZNF417 (zinc finger protein 417) | 0.98 | 0.88
NR0B1 (nuclear receptor subfamily 0 group B member 1) | 1.17 | 1.05
DSE (dermatan sulfate epimerase) | 1.05 | 0.63
RRP1 (ribosomal RNA processing 1) | 0.92 | 0.66
TBX6 (T-box transcription factor 6) | 1.06 | 0.93
